The list shows a part of the results. This data set is noisy: repeats of one test often differ as much as different tests do.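 HEK293T cells were given each compound shortly before transfection with a reporter in which red mCherry is followed by the SARS-CoV-2 frameshift element and then GFP in the −1 frame, so GFP appears only after frameshifting.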

For this experiment, the system named is HEK293T. The experiment in a line: percent viability (nuclei count) relative to control; higher = more viable cells. The note with it: 10 µM; 24 h.
With `CC(C)[N+]1(C)[C@@H]2CC[C@H]1C[C@@H](OC(=O)C(CO)c1ccccc1)C2` (stereo not given in full), the percent viability turned out to be 98.3%. For `Cc1cc(O)c(S(=O)(=O)O)cc1Cc1cc(S(=O)(=O)O)c(O)cc1C` [dicresulene], the percent viability is 127%. Regarding `Cc1c(C(=O)NCCO)[n+]([O-])c2ccccc2[n+]1[O-]` [olaquindox], the percent viability was determined as 38.8%. Take `O=C(O)c1cc(-c2ccccc2)nc2ccccc12` [cinchophen]: the percent viability is 205%. In the case of `CN1CCN(c2cc3c(cc2F)c(=O)c(C(=O)O)cn3-c2ccc(F)cc2)CC1` it was 49.8%; in that of `CN1CCc2cccc3c2[C@H]1Cc1ccc(O)c(O)c1-3`, 297%. Turning to `CO[C@H](C(=O)[C@@H](O)[C@@H](C)O)[C@@H]1Cc2cc3cc(O[C@H]4C[C@@H](O[C@H]5C[C@@H](O)[C@H](O)[C@@H](C)O5)[C@H](O)[C@@H](C)O4)c(C)c(O)c3c(O)c2C(=O)[C@H]1O[C@H]1C[C@@H](O[C@H]2C[C@@H](O[C@H]3C[C@](C)(O)[C@H](O)[C@@H](C)O3)[C@@H](O)[C@@H](C)O2)[C@H](O)[C@@H](C)O1` [Plicamycin], the percent viability was determined as 39.7%. In the case of `CN(C(=O)C(Cl)Cl)c1ccc(O)cc1` [diloxanide] it was 258%; in that of `CO[C@H]1C(=O)[C@]2(C)[C@@H](OC)C[C@H]3OC[C@@]3(OC(C)=O)[C@H]2[C@H](OC(=O)c2ccccc2)[C@]2(O)C[C@H](OC(=O)[C@H](O)[C@@H](NC(=O)OC(C)(C)C)c3ccccc3)C(C)=C1C2(C)C` [Jevtana], 58.4%. The figure for `Nc1nc(=O)n([C@@H]2O[C@H](CO)[C@@H](O)[C@@H]2F)cc1I` [fiacitabine] is 183%.

The values are drawn from the supplement of paper PMC8256030.
